# Experimental data from the supplement of paper PMC10032668.
# Sequences of proteins named here, by UniProt entry; tags and fusion partners are left off.
# PARK7, Q99497, UniProt Q99497, whole entry: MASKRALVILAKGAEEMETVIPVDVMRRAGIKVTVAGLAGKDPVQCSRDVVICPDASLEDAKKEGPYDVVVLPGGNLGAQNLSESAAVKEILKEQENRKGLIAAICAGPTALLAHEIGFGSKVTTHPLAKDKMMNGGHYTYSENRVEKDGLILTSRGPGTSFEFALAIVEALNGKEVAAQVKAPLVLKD
# PGAM5, Q96HS1, UniProt Q96HS1, whole entry: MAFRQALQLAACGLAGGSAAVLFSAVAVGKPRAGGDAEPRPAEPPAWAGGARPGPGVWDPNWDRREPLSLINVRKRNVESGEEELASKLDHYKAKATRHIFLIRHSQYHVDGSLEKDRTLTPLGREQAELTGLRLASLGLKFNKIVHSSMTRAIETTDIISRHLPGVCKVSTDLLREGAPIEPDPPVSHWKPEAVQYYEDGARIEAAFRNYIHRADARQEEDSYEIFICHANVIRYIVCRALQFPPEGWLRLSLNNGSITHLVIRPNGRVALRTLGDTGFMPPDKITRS
# RCC2, Q9P258, UniProt Q9P258, whole entry: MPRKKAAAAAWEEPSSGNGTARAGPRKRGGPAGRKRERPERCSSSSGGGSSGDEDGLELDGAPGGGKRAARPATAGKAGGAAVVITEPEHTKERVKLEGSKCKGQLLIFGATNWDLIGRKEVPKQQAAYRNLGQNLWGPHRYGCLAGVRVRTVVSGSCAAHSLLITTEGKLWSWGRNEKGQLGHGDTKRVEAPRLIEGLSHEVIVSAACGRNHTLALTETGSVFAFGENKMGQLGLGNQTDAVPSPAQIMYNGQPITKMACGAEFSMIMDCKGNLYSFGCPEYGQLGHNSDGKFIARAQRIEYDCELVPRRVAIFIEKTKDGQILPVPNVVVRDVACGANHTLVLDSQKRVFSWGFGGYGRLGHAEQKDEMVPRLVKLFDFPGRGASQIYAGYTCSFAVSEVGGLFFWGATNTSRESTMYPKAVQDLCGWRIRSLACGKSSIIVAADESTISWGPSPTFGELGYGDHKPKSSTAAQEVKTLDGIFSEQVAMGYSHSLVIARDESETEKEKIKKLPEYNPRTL
# TAF4, O00268, UniProt O00268, whole entry: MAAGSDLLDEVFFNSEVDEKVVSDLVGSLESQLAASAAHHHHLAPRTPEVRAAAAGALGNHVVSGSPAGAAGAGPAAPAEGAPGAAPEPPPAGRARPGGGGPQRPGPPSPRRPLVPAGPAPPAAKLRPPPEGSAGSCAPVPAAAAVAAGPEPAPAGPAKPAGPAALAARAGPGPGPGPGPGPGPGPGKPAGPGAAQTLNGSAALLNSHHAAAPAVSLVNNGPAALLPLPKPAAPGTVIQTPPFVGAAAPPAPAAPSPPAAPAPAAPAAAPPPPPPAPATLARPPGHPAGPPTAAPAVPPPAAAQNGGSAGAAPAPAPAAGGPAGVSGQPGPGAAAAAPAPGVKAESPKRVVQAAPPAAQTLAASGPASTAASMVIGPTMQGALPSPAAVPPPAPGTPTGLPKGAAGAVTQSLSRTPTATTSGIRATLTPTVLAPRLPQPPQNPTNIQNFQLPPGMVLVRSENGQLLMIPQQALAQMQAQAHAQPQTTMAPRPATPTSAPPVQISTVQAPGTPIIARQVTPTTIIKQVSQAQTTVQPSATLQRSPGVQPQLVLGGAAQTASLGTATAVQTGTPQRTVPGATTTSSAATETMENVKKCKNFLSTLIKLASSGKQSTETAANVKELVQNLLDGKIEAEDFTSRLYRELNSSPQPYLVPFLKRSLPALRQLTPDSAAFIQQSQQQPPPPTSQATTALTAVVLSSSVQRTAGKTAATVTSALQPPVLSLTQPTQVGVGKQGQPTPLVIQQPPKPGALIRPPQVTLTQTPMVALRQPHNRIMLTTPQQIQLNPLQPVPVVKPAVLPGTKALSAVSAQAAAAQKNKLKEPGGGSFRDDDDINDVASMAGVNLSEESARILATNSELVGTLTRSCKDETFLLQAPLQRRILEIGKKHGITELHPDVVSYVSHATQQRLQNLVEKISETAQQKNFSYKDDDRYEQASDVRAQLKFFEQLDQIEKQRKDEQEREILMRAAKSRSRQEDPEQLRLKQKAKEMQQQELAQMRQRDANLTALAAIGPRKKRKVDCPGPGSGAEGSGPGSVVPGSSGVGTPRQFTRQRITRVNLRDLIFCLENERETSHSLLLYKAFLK
# The other results are listed elsewhere or left out. Only hits are listed; about a third recur on repeated control peptides.
# Assays:
# Experiment in all cases: PRISMA enrichment of interactor (LFQ) in peptide spot vs all other peptide spots (log2 fold change); higher = stronger / more specific binding of the interactor to the peptide
# ABCE1, P61221 = molecular target: ABCE1, P61221
# Description: (§1)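 PRISMA: 15-aa overlapping tiles (offset 8 aa) of 60 microproteins, plus SOS1/GLUT1 control peptides, were spot-synthesized on cellulose membranes in triplicate. Membranes were incubated with benzonase-treated HEK293T lysate, and bound proteins were identified by LC-MS/MS with LFQ. Enrichment is the log2 fold change of each protein in one spot versus all other spots. Only interactors passing the significance cutoff are listed.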
# BMS1, Q14692 = molecular target: BMS1, Q14692
# Description: as §1
# BYSL, Q13895 = molecular target: BYSL, Q13895
# Description: as §1
# CCAR1, Q8IX12 = molecular target: CCAR1, Q8IX12
# Description: as §1
# CHD4, Q14839 = molecular target: CHD4, Q14839
# Description: as §1
# COL4A3BP, Q9Y5P4 = molecular target: COL4A3BP, Q9Y5P4
# Description: as §1
# CRNKL1, Q9BZJ0 = molecular target: CRNKL1, Q9BZJ0
# Description: as §1
# EIF2AK2, P19525 = molecular target: EIF2AK2, P19525
# Description: as §1
# ELOVL1, Q9BW60 = molecular target: ELOVL1, Q9BW60
# Description: as §1
# FARP2, O94887 = molecular target: FARP2, O94887
# Description: as §1
# FGA, P02671 = molecular target: FGA, P02671
# Description: as §1
# GCFC2, P16383 = molecular target: GCFC2, P16383
# Description: as §1
# GMPS, P49915 = molecular target: GMPS, P49915
# Description: as §1
# HCFC1, P51610 = molecular target: HCFC1, P51610
# Description: as §1
# HNRNPDL, O14979 = molecular target: HNRNPDL, O14979
# Description: as §1
# LLPH, Q9BRT6 = molecular target: LLPH, Q9BRT6
# Description: as §1
# MAP7D1, Q3KQU3 = molecular target: MAP7D1, Q3KQU3
# Description: as §1
# NAA10, P41227 = molecular target: NAA10, P41227
# Description: as §1
# NEPRO, Q6NW34 = molecular target: NEPRO, Q6NW34
# Description: as §1
# PARK7, Q99497 = molecular target: PARK7, Q99497
# Description: as §1
# PGAM5, Q96HS1 = molecular target: PGAM5, Q96HS1
# Description: as §1
# PPP1R14A, Q96A00 = molecular target: PPP1R14A, Q96A00
# Description: as §1
# QKI, Q96PU8 = molecular target: QKI, Q96PU8
# Description: as §1
# RCC2, Q9P258 = molecular target: RCC2, Q9P258
# Description: as §1
# RMDN3, Q96TC7 = molecular target: RMDN3, Q96TC7
# Description: as §1
# RRP12, Q5JTH9 = molecular target: RRP12, Q5JTH9
# Description: as §1
# RTF1, Q92541 = molecular target: RTF1, Q92541
# Description: as §1
# RTN4, Q9NQC3 = molecular target: RTN4, Q9NQC3
# Description: as §1
# SEC22B, O75396 = molecular target: SEC22B, O75396
# Description: as §1
# SNX2, O60749 = molecular target: SNX2, O60749
# Description: as §1
# TAF4, O00268 = molecular target: TAF4, O00268
# Description: as §1
# TBCD, Q9BTW9 = molecular target: TBCD, Q9BTW9
# Description: as §1
# TBL3, Q12788 = molecular target: TBL3, Q12788
# Description: as §1
# UQCR10, Q9UDW1 = molecular target: UQCR10, Q9UDW1
# Description: as §1
binder,measurement,setting,value
VGSLTQLGPSRPVLG [LINC01560],PRISMA enrichment of interactor (log2),"ABCE1, P61221",4.44
same,PRISMA enrichment of interactor (log2),"BMS1, Q14692",6.66
same,PRISMA enrichment of interactor (log2),"BYSL, Q13895",5.97
same,PRISMA enrichment of interactor (log2),"CCAR1, Q8IX12",5.26
same,PRISMA enrichment of interactor (log2),"CHD4, Q14839",6.26
same,PRISMA enrichment of interactor (log2),"COL4A3BP, Q9Y5P4",4.65
same,PRISMA enrichment of interactor (log2),"CRNKL1, Q9BZJ0",4.85
same,PRISMA enrichment of interactor (log2),"EIF2AK2, P19525",7.14
same,PRISMA enrichment of interactor (log2),"ELOVL1, Q9BW60",5.18
same,PRISMA enrichment of interactor (log2),"FARP2, O94887",4.87
same,PRISMA enrichment of interactor (log2),"FGA, P02671",4.94
same,PRISMA enrichment of interactor (log2),"GCFC2, P16383",4.94
same,PRISMA enrichment of interactor (log2),"GMPS, P49915",5.2
same,PRISMA enrichment of interactor (log2),"HCFC1, P51610",7.96
same,PRISMA enrichment of interactor (log2),"HNRNPDL, O14979",5.23
same,PRISMA enrichment of interactor (log2),"LLPH, Q9BRT6",5.25
same,PRISMA enrichment of interactor (log2),"MAP7D1, Q3KQU3",8.42
same,PRISMA enrichment of interactor (log2),"NAA10, P41227",4.17
same,PRISMA enrichment of interactor (log2),"NEPRO, Q6NW34",5.58
same,PRISMA enrichment of interactor (log2),"PARK7, Q99497",5.28
same,PRISMA enrichment of interactor (log2),"PGAM5, Q96HS1",5.37
same,PRISMA enrichment of interactor (log2),"PPP1R14A, Q96A00",4.82
same,PRISMA enrichment of interactor (log2),"QKI, Q96PU8",6.8
same,PRISMA enrichment of interactor (log2),"RCC2, Q9P258",6.33
same,PRISMA enrichment of interactor (log2),"RMDN3, Q96TC7",7.98
same,PRISMA enrichment of interactor (log2),"RRP12, Q5JTH9",5.32
same,PRISMA enrichment of interactor (log2),"RTF1, Q92541",5.3
same,PRISMA enrichment of interactor (log2),"RTN4, Q9NQC3",4.05
same,PRISMA enrichment of interactor (log2),"SEC22B, O75396",5.97
same,PRISMA enrichment of interactor (log2),"SNX2, O60749",5.64
same,PRISMA enrichment of interactor (log2),"TAF4, O00268",5.82
same,PRISMA enrichment of interactor (log2),"TBCD, Q9BTW9",7.2
same,PRISMA enrichment of interactor (log2),"TBL3, Q12788",3.93
same,PRISMA enrichment of interactor (log2),"UQCR10, Q9UDW1",5.26

# In another format: entries from further up.
binder	measurement	setting	value
VGSLTQLGPSRPVLG [LINC01560]	PRISMA enrichment of interactor (log2)	QKI, Q96PU8	6.8
same	PRISMA enrichment of interactor (log2)	RCC2, Q9P258	6.33
same	PRISMA enrichment of interactor (log2)	RMDN3, Q96TC7	7.98
same	PRISMA enrichment of interactor (log2)	RRP12, Q5JTH9	5.32
same	PRISMA enrichment of interactor (log2)	RTF1, Q92541	5.3
same	PRISMA enrichment of interactor (log2)	RTN4, Q9NQC3	4.05
same	PRISMA enrichment of interactor (log2)	SEC22B, O75396	5.97
same	PRISMA enrichment of interactor (log2)	SNX2, O60749	5.64
